The assay concerns the target Med17-HA (S. cerevisiae (endogenous in S288c)) (UniProt P32569). Description: affinity purification with mass spectrometry; CoIP of Med17-HA on anti-HA magnetic beads from cryoground yeast lysate, 2 h at 4 °C; 20 mM HEPES pH 7.5, 300 mM KOAc, 10% glycerol, 0.01% NP-40, 6 mM MnSO4, 1 mM DTT, Cyanase nuclease; parallel control CoIP from 15N-labelled wild type cells, mixing after purification (MAP); GeLC-MS/MS, three biological replicates.

Protein sequences, listed by entry. Tags and fused reporters are not part of them.
UniProt P32569: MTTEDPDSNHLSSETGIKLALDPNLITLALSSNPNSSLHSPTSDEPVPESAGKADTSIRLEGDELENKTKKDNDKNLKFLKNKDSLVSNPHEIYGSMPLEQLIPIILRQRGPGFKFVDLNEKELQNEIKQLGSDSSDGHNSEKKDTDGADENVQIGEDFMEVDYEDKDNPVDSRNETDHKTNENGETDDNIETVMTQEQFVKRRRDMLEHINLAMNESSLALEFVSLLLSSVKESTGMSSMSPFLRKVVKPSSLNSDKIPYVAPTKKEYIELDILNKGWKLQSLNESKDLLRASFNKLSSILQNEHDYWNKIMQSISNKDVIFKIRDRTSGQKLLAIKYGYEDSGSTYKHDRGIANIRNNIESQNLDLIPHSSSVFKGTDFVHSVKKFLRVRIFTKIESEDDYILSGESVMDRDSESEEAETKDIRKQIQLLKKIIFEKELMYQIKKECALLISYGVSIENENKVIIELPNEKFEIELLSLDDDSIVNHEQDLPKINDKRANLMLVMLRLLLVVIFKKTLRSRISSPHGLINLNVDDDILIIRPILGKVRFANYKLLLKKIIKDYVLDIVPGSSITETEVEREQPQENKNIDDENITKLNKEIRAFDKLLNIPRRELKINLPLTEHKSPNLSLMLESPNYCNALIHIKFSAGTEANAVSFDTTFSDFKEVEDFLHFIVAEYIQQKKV

These are yes or no findings as the source states them, for the method shown. In cells and extracts the contact can be indirect. These calls come from enrichment with a bait or labelling near it, and not all partners need be listed.

B1: Cbp2 (protein, UniProt P03874 1-630)
chain: MVNWQTLFMVSLRRQGSSSRYRYKFNMENITHQVFPRCKQAFKKTNLSYEYCDLEGVLYNISLTDLQKLLLRDINAPREHAFKIVRTDLTQKSSKKRIQHWERIAPMFDHPLSLYEKLFSEMDEDFKPSFEWQQLIRVRCKDDKLKLQRVIWPKSIFSNFCRGIGVKKSTYDRLLEQNNGEVPMFVNPANAKPLPLFQVSDEAMIGEFDGIGIFPYFVDKHREFFVTEVDKLKTKIASPLCTLNERKRIEKANAGRILANEEGKPFYLDANSATTRIAGGNVVTLKQLLERSVSHKTLWSKQSNKDRTCPGDILRATILSNDFSIRQLRAEFCKNFILYNIFTILQRNKKSIRSFSGNDNAPSFQFSWNVWDSYIWKQYQETESMKIPTDQASLINYKTKYDSFLHDLQTYSALVISEMKWNQFSIFQNDETTLSRFEHITLILQTVLTKSKMIRIFQPNLYKFMQDDLRPTLMELVGFTESINATIEPGFANEQSLQSANGLKKLANQLLYFEQEIYGEKFRVNRPIQLRPITLSANYKIVILDKKNAIPEIFQTLLKFMTQITTYFVKDLSEVELHGHMHCIDKKMLDKSKFMYLYEEKSNEEVKAASPQKEKIVDNIIGLLSNDEEH
As for B1, the binding entry was “binds”.

B2: Spt6 (protein, UniProt P23615 1-1451)
chain: MEETGDSKLVPRDEEEIVNDNDETKAPSEEEEGEDVFDSSEEDEDIDEDEDEARKVQEGFIVNDDDENEDPGTSISKKRRKHKRREREEDDRLSEDDLDLLMENAGVERTKASSSSGKFKRLKRVGDEGNAAESESDNVAASRQDSTSKLEDFFSEDEEEEESGLRNGRNNEYGRDEEDHENRNRTADKGGILDELDDFIEDDEFSDEDDETRQRRIQEKKLLREQSIKQPTQITGLSSDKIDEMYDIFGDGHDYDWALEIENEELENGNDNNEAEEEEIDEETGAIKSTKKKISLQDIYDLEDLKKNLMTEGDMKIRKTDIPERYQELRAGITDYGNMSSEDQELERNWIAEKISVDKNFDANYDLTEFKEAIGNAIKFITKENLEVPFIYAYRRNYISSREKDGFLLTEDDLWDIVSLDIEFHSLVNKKDYVQRFYAELHIDDPIVTEYFKNQNTASIAELNSLQDIYDYLEFKYANEINEMFINHTGKTGKKHLKNSSYEKFKASPLYQAVSDIGISAEDVGENISSQHQIHPPVDHPSSKPVEVIESILNANSGDLQVFTSNTKLAIDTVQKYYSLELSKNTKIREKVRSDFSKYYLADVVLTAKGKKEIQKGSLYEDIKYAINRTPMHFRRDPDVFLKMVEAESLNLLSVKLHMSSQAQYIEHLFQIALETTNTSDIAIEWNNFRKLAFNQAMDKIFQDISQEVKDNLTKNCQKLVAKTVRHKFMTKLDQAPFIPNVRDPKIPKILSLTCGQGRFGADAIIAVYVNRKGDFIRDYKIVDNPFDKTNPEKFEDTLDNIIQSCQPNAIGINGPNPKTQKFYKRLQEVLHKKQIVDSRGHTIPIIYVEDEVAIRYQNSERAAQEFPNKPPLVKYCIALARYMHSPLLEYANLTSEEVRSLSIHPHQNLLSSEQLSWALETAFVDIVNLVSVEVNKATDNNYYASALKYISGFGKRKAIDFLQSLQRLNEPLLARQQLITHNILHKTIFMNSAGFLYISWNEKRQKYEDLEHDQLDSTRIHPEDYHLATKVAADALEYDPDTIAEKEEQGTMSEFIELLREDPDRRAKLESLNLESYAEELEKNTGLRKLNNLNTIVLELLDGFEELRNDFHPLQGDEIFQSLTGESEKTFFKGSIIPVRVERFWHNDIICTTNSEVECVVNAQRHAGAQLRRPANEIYEIGKTYPAKVIYIDYANITAEVSLLDHDVKQQYVPISYSKDPSIWDLKQELEDAEEERKLMMAEARAKRTHRVINHPYYFPFNGRQAEDYLRSKERGEFVIRQSSRGDDHLVITWKLDKDLFQHIDIQELEKENPLALGKVLIVDNQKYNDLDQIIVEYLQNKVRLLNEMTSSEKFKSGTKKDVVKFIEDYSRVNPNKSVYYFSLNHDNPGWFYLMFKINANSKLYTWNVKLTNTGYFLVNYNYPSVIQLCNGFKTLLKSNSSKNRMNNYR
Turning to B2, the binding entry was “binds”.

B3: Rpa2 (protein, UniProt P22138 1-1203)
chain: MSKVIKPPGQARTADFRTLERESRFINPPKDKSAFPLLQEAVQPHIGSFNALTEGPDGGLLNLGVKDIGEKVIFDGKPLNSEDEISNSGYLGNKLSVSVEQVSIAKPMSNDGVSSAVERKVYPSESRQRLTSYRGKLLLKLKWSVNNGEENLFEVRDCGGLPVMLQSNRCHLNKMSPYELVQHKEESDEIGGYFIVNGIEKLIRMLIVQRRNHPMAIIRPSFANRGASYSHYGIQIRSVRPDQTSQTNVLHYLNDGQVTFRFSWRKNEYLVPVVMILKALCHTSDREIFDGIIGNDVKDSFLTDRLELLLRGFKKRYPHLQNRTQVLQYLGDKFRVVFQASPDQSDLEVGQEVLDRIVLVHLGKDGSQDKFRMLLFMIRKLYSLVAGECSPDNPDATQHQEVLLGGFLYGMILKEKIDEYLQNIIAQVRMDINRGMAINFKDKRYMSRVLMRVNENIGSKMQYFLSTGNLVSQSGLDLQQVSGYTVVAEKINFYRFISHFRMVHRGSFFAQLKTTTVRKLLPESWGFLCPVHTPDGSPCGLLNHFAHKCRISTQQSDVSRIPSILYSLGVAPASHTFAAGPSLCCVQIDGKIIGWVSHEQGKIIADTLRYWKVEGKTPGLPIDLEIGYVPPSTRGQYPGLYLFGGHSRMLRPVRYLPLDKEDIVGPFEQVYMNIAVTPQEIQNNVHTHVEFTPTNILSILANLTPFSDFNQSPRNMYQCQMGKQTMGTPGVALCHRSDNKLYRLQTGQTPIVKANLYDDYGMDNFPNGFNAVVAVISYTGYDMDDAMIINKSADERGFGYGTMYKTEKVDLALNRNRGDPITQHFGFGNDEWPKEWLEKLDEDGLPYIGTYVEEGDPICAYFDDTLNKTKIKTYHSSEPAYIEEVNLIGDESNKFQELQTVSIKYRIRRTPQIGDKFSSRHGQKGVCSRKWPTIDMPFSETGIQPDIIINPHAFPSRMTIGMFVESLAGKAGALHGIAQDSTPWIFNEDDTPADYFGEQLAKAGYNYHGNEPMYSGATGEELRADIYVGVVYYQRLRHMVNDKFQVRSTGPVNSLTMQPVKGRKRHGGIRVGEMERDALIGHGTSFLLQDRLLNSSDYTQASVCRECGSILTTQQSVPRIGSISTVCCRRCSMRFEDAKKLLTKSEDGEKIFIDDSQIWEDGQGNKFVGGNETTTVAIPFVLKYLDSELSAMGIRLRYNVEPK
Take B3: the binding result is given as “binds”.

B4: Edc3 (protein, UniProt P39998 1-551)
chain: MSQFVGFGVQVELKDGKLIQGKIAKATSKGLTLNDVQFGDGGKSQAFKVRASRLKDLKVLTVASQSGKRKQQRQQQQQNDYNQNRGEHIDWQDDDVSKIKQQEDFDFQRNLGMFNKKDVFAQLKQNDDILPENRLQGHNRKQTQLQQNNYQNDELVIPDAKKDSWNKISSRNEQSTHQSQPQQDAQDDLVLEDDEHEYDVDDIDDPKYLPITQSLNITHLIHSATNSPSINDKTKGTVINDKDQVLAKLGQMIISQSRSNSTSLPAANKQTTIRSKNTKQNIPMATPVQLLEMESITSEFFSINSAGLLENFAVNASFFLKQKLGGRARLRLQNSNPEPLVVILASDSNRSGAKALALGRHLCQTGHIRVITLFTCSQNELQDSMVKKQTDIYKKCGGKIVNSVSSLESAMETLNSPVEIVIDAMQGYDCTLSDLAGTSEVIESRIKSMISWCNKQRGSTKVWSLDIPNGFDAGSGMPDIFFSDRIEATGIICSGWPLIAINNLIANLPSLEDAVLIDIGIPQGAYSQRTSLRKFQNCDLFVTDGSLLLDL
For B4, the binding entry is “binds”.

B5: Rtr1 (protein, UniProt P40084 1-226)
chain: MATIEDIKETALIPFQKHRQLSMHEAEVITLEIIGLLCDSECKDEKTLKYLGRFLTPDMYQDLVDERNLNKRCGYPLCGKSPERIRDPFSMNDTTKKFLLENNPYAYLSHYCSKFHFRCSQFYQVQLSDEALFARTGVHLFEDPEQDKHDIDFKVTLFEELLREKASEEDIKSLISGLKKLGLNPDSGTTEKDDTELEDDLSKWLAQIKIVENDNPSILGDFTRED
Regarding B5, the binding entry is reported as “binds”.

B6: Dcp2 (protein, UniProt P53550 1-970)
chain: MSLPLRHALENVTSVDRILEDLLVRFIINCPNEDLSSVERELFHFEEASWFYTDFIKLMNPTLPSLKIKSFAQLIIKLCPLVWKWDIRVDEALQQFSKYKKSIPVRGAAIFNENLSKILLVQGTESDSWSFPRGKISKDENDIDCCIREVKEEIGFDLTDYIDDNQFIERNIQGKNYKIFLISGVSEVFNFKPQVRNEIDKIEWFDFKKISKTMYKSNIKYYLINSMMRPLSMWLRHQRQIKNEDQLKSYAEEQLKLLLGITKEEQIDPGRELLNMLHTAVQANSNNNAVSNGQVPSSQELQHLKEQSGEHNQQKDQQSSFSSQQQPSIFPSLSEPFANNKNVIPPTMPMANVFMSNPQLFATMNGQPFAPFPFMLPLTNNSNSANPIPTPVPPNFNAPPNPMAFGVPNMHNLSGPAVSQPFSLPPAPLPRDSGYSSSSPGQLLDILNSKKPDSNVQSSKKPKLKILQRGTDLNSIKQNNNDETAHSNSQALLDLLKKPTSSQKIHASKPDTSFLPNDSVSGIQDAEYEDFESSSDEEVETARDERNSLNVDIGVNVMPSEKDSRRSQKEKPRNDASKTNLNASAESNSVEWGPGKSSPSTQSKQNSSVGMQNKYRQEIHIGDSDAYEVFESSSDEEDGKKLEELEQTQDNSKLISQDILKENNFQDGEVPHRDMPTESNKSINETVGLSSTTNTVKKVPKVKILKRGETFASLANDKKAFDSSSNVSSSKDLLQMLRNPISSTVSSNQQSPKSQHLSGDEEIMMMLKRNSVSKPQNSEENASTSSINDANASELLGMLKQKEKDITAPKQPYNVDSYSQKNSAKGLLNILKKNDSTGYPRTEGGPSSEMSTSMKRNDATNNQELDKNSTELLNYLKPKPLNDGYENISNKDSSHELLNILHGNKNSSAFNNNVYATDGYSLASDNNENSSNKLLNMLQNRSSAINEPNFDVRSNGTSGSNELLSILHRK
With B6, the binding entry was “binds”.

B7: Rpa12 (protein, UniProt P32529 1-125)
chain: MSVVGSLIFCLDCGDLLENPNAVLGSNVECSQCKAIYPKSQFSNLKVVTTTADDAFPSSLRAKKSVVKTSLKKNELKDGATIKEKCPQCGNEEMNYHTLQLRSADEGATVFYTCTSCGYKFRTNN
With B7, the binding entry is “binds”.

B8: Rpa34 (protein, UniProt P47006 1-233)
chain: MSKLSKDYVSDSDSDDEVISNEFSIPDGFKKCKHLKNFPLNGDNKKKAKQQQVWLIKFPSNVDISKLKSLPVDFESSTTMTIDKHDYKIMDDTDIESSLTQDNLSNMTLLVPSESKESLKIASTAKDNAPLQFDKVFSVSETAKIPAIDYSKVRVPRKDVPKVEGLKLEHFATGYDAEDFHVAEEVKENKKEPKKRSHHDDEEESSEKKKKKKEKREKREKKDKKDKKKKHRD
Consider B8, for which the binding entry was “binds”.

B9: Rpa14 (protein, UniProt P50106 1-137)
chain: MMKGSRRTGNNTATTLNTPVVIHATQLPQHVSTDEVLQFLESFIDEKENIIDSTTMNTISGNAADADAAAVANTSLNIDTNLSSSISQLKRIQRDFKGLPPAQDFSAAPIQVSTTEKKETSIGVSATGGKKTTFADE
For B9, the binding result is given as “binds”.

(Values after publication PMC5327418.)
